Where “and” joins values, the source holds several entries; their conditions need not be identical. Identical values can stand only once. The whole screen tested about 300,000 compounds, of which about 5,400 (1.8%) were called active. Inconclusive results, whose numbers are uncertain, are shown with a selection of clear calls. Calls come from the whole dose curve; tested in HEK293 cells. Potencies beside an inconclusive call are fits to weak or partial responses and may not hold up.
Experiment: qHTS for inhibitors of binding or entry into cells for Marburg Virus
Settings: Marburg virus pseudotyped entry inhibition, cell reporter; activity change, negative = inhibition: at 37.8 µM (top of the series) unless noted
% is set by controls: 0 for no effect and ±100 for the full control effect; potency is the fitted concentration of half-maximal effect.

Structure (SMILES) | Potency | activity change, negative = inhibition
COc1ccc(NC(=O)C2CC(=O)OC2c2ccccc2)cc1 (centres undefined) | inconclusive: 0.891 µM [inhibitor, single point] | –
CC(C)(C)C1CCc2c(sc(NC(=O)c3cccc(Cl)c3)c2C(N)=O)C1 (centres undefined) | – | inactive: 3.24% [at 46.1 µM]
CC(C)c1nnc(NC(=O)CCC(=O)NC2CCCc3ccccc32)s1 (centres undefined) | inconclusive: 5.62 µM [activator, single point] | –
COc1ccc(/C=N/N2C(=O)CSC2=S)cc1 | inconclusive: 13 µM [activator, single point] | –
Cc1nnsc1C(=O)N/N=C/c1ccccc1 | inconclusive: 5.62 µM [activator, full curve, poor fit] | –
Cn1c(SCC(=O)Nc2ccccc2)nc2ccccc2c1=O | active: 3.98 µM | –
Cc1ccc(C)c(N=Nc2nc3ccccc3n2C)c1 | inconclusive: 1.3 µM [activator, full curve] | –
CCOc1ccc(N(CC(=O)NCCc2ccc(F)cc2)S(=O)(=O)c2ccccc2)cc1 | inconclusive: 1.26 µM [activator, single point] | –
CC(C)(C)C(=O)OC[N+](C)(C)CCOC(=O)C(O)(c1ccccc1)C1CCCC1 (centres undefined) | inconclusive: 5.62 µM [inhibitor, partial curve, poor fit] | –
Cc1ccc(-c2nc3sccn3c2Nc2ccccc2C)cc1 | inconclusive: 4.47 µM [inhibitor, partial curve, poor fit] | –
O=C(NC1CCCCC1)N(Cc1nc2ccccc2c(=O)[nH]1)C1CCCCC1 | – | inactive: 11.1%
Cc1cccc(C)c1NC(=O)CN | inconclusive: 1.3 µM [activator, partial curve, poor fit] | –
C=CCN(c1ccccc1)S(=O)(=O)c1cccc(C(=O)NCC(c2ccc(OC)cc2)N2CCCCC2)c1 (centres undefined) | inconclusive: 11.2 µM [inhibitor, partial curve, poor fit] | –
O=C(NC1CCC(O)CC1)c1cccc2cccnc12 (centres undefined) | – | inactive: 3.33% [at 46.1 µM]
CCN1C(=O)C(C(=O)Nc2ccc(OC)cc2)C2CC1(C)Oc1ccccc12 (centres undefined) | – | inactive: -13.2%
CCOC(=O)C1=C(C)Nc2nc(C)nn2C1c1cc(OC)ccc1OC (centres undefined) | – | inactive: -11.5%
COc1ccc(N2CC3=C(C2=O)C(c2ccc(Br)cc2)NC(=O)N3C)cc1 (centres undefined) | – | inactive: -35.3% [at 46.1 µM]
O=C(O)c1cc(NC(=O)c2ccc3c(c2)C(=O)N(Cc2cccnc2)C3=O)cc(C(=O)O)c1 | – | inactive: 28%
Cc1ccc(NS(=O)(=O)c2ccc(C(=O)N3CCCCCC3)cc2)cc1 | inconclusive: 28.2 µM [inhibitor, single point] | –
CC(C)CN(CCCNC(=O)CN1C(=O)COc2ccc(S(=O)(=O)N3CCCCCC3)cc21)CC(C)C | inconclusive: 11.2 µM [inhibitor, partial curve] | –
CC1CCN(c2nc(/C=C/c3ccccc3)nc3ccccc23)CC1 | inconclusive: 25.1 µM [inhibitor, single point] | –
COc1cccc(-n2c(=O)c3sc4ccccc4c3n(CC(=O)Nc3ccc(F)cc3F)c2=O)c1 | – | inactive: 8.92% [at 46.1 µM]

Structure (SMILES) | Potency | activity change, negative = inhibition
Cc1ccc(O)c(-c2cc(C(F)(F)F)[nH]n2)c1 | inconclusive: 1.03 µM [inhibitor, full curve] | –
O=C(CNc1ccccc1)NN=C1CCCC1 | – | inactive: 3.42% [at 46.1 µM]
N#Cc1c(NCCCO)nc(NCc2ccccc2)c2c1CCN(Cc1ccccc1)C2 | inconclusive: 35.5 µM [inhibitor, single point] | –
COCc1nnc(NC(=O)c2cccs2)s1 | inconclusive: 32.6 µM [activator, partial curve, poor fit] | –
OCCCNc1ncnc2c1[nH]c1ccccc12 | inconclusive: 5.62 µM [inhibitor, single point] | –
O=C(NCc1ccccc1Cl)c1ccc(S(=O)(=O)Nc2cccc(C(F)(F)F)c2)cc1 | inconclusive: 0.562 µM [inhibitor, full curve, poor fit] | –
O=C(Nc1ccc(-c2nc3ccccc3[nH]2)cc1)c1c(F)c(F)c(F)c(F)c1F | – | inactive: -1.52% [at 46.1 µM]
Nc1nc(-c2ccc(Br)cc2)c(S(=O)(=O)c2ccccc2)s1 | inconclusive: 14.1 µM [activator, single point] | –
Nc1nonc1-c1nc2ccccc2n1CC(=O)N/N=C/c1ccc(-c2ccccc2C(=O)O)o1 | inconclusive: 1.58 µM [activator, partial curve, poor fit] | –
COCCn1c(-c2ccc(Cl)cc2)cnc1SCC(=O)NCCc1ccc(OC)c(OC)c1 | inconclusive: 7.94 µM [inhibitor, partial curve, poor fit] | –
N=c1c(C(=O)NCc2ccco2)cc2c(=O)n3ccccc3nc2n1Cc1ccccc1 | inconclusive: 6.31 µM [inhibitor, partial curve, poor fit] | –
COCCN(CCOC)C(=O)COC(=O)c1ccc(Cl)c(S(=O)(=O)N(C)c2ccccc2)c1 | inconclusive: 5.62 µM [inhibitor, single point] | –
CNc1ccc(/C=C(\CCC(=O)O)c2nc3ccccc3s2)cc1[N+](=O)[O-] | – | inactive: -2.38%
COc1ccc(N2CCOCC2)c(NC(=O)c2cc3ccccc3o2)c1 | inconclusive: 8.91 µM [inhibitor, partial curve, poor fit] | –
CCOC(=O)C1CCN(C(=O)c2cc3cc4cc(OC)ccc4nc3o2)CC1 | inconclusive: 35.5 µM [activator, single point] | –
Cc1cccc[n+]1CCCCCCCCCC[n+]1ccccc1C | inconclusive: 3.98 µM [inhibitor, partial curve, poor fit] | –
COC(=O)CSc1nc2ccccc2c(=O)n1Cc1ccccc1 | inconclusive: 11.2 µM [activator, partial curve, poor fit] | –
CCOC(=O)c1c(C)sc(-c2c(-c3ccc4c(c3)OCCO4)[nH]c3c2c(=O)[nH]c(=O)n3C)c1O | – | inactive: -29.6% [at 46.1 µM]
COC1(OC)N=C(N)C2(C#N)C(c3ccc(F)cc3)C12C#N (centres undefined) | – | inactive: -3.31%
O=C(c1ccc(-c2ccc(Cl)cc2)o1)N1CCN(c2ccc([N+](=O)[O-])cc2Cl)CC1 | – | inactive: -1.19%
CN(Cc1ccc(-n2cccn2)cc1)Cc1nc(-c2cnccn2)no1 | inconclusive: 0.562 µM [inhibitor, full curve, poor fit] | –
Fc1ccccc1N1CCN(CCCc2ccccc2)CC1 | inconclusive: 6.31 µM [inhibitor, single point] | –

Structure (SMILES) | Potency | activity change, negative = inhibition
COc1ccc(C2NC(c3ccc(OC)cc3)C(C)C(=O)C2C)cc1 (centres undefined) | inconclusive: 8.91 µM [inhibitor, partial curve, poor fit] | –
Cc1cc(NC(=O)c2ccc3c(c2)C(=O)N(Cc2ccccc2)C3=O)no1 | inconclusive: 35.5 µM [activator, single point] | –
COc1ccc(CC(=O)Nc2nnc(SCc3ccccc3)s2)cc1S(=O)(=O)N1CCOCC1 | inconclusive: 35.5 µM [inhibitor, single point] | –
Cc1cccc(OCCN2C(=O)C(=O)c3cccc(C)c32)c1 | inconclusive: 1.12 µM [inhibitor, single point] | –
CC1CCCCN1N=Nc1nc2c([nH]1)c(=O)n(C)c(=O)n2C (centres undefined) | – | inactive: -3.18% [at 46.1 µM]
COc1ccc(-c2nn(-c3ccccc3)cc2C(=O)N2c3ccc(C)cc3C3CN(C)CCC32)cc1 (centres undefined) | inconclusive: 2.24 µM [inhibitor, full curve, poor fit] | –
COc1ccc(-c2nnc(SC(C)C(=O)NCc3ccc4c(c3)OCO4)n2Cc2ccco2)cc1 (centres undefined) | inconclusive: 2 µM [inhibitor, partial curve, poor fit] | –
CCOCCCn1c(=N)c(C(=O)NCc2ccco2)cc2c(=O)n3ccccc3nc21 | inconclusive: 3.55 µM [inhibitor, full curve] | –
N/C(=N\OC(=O)c1cccc2ccccc12)c1ccccn1 | inconclusive: 22.4 µM [inhibitor, single point] | –
CCOc1cc(N(CC)CC)ccc1/C=C(/C#N)c1nc2ccccc2[nH]1 | active: 13 µM | –
Cc1cccc(NC(=S)NC2CC3CCC(C2)N3Cc2ccco2)c1 (centres undefined) | inconclusive: 0.651 µM [inhibitor, partial curve, poor fit] | –
O=C(OCc1nnc(-c2ccc([N+](=O)[O-])cc2)o1)C1CC(=O)N(CCc2ccccc2)C1 (centres undefined) | inconclusive: 3.16 µM [inhibitor, partial curve, poor fit] | –
Cc1cccn2c(=O)c3cc(C#N)c(=NC(=O)c4ccccc4)n(Cc4ccco4)c3nc12 | inconclusive: 15.8 µM [inhibitor, single point] and inconclusive: 12.6 µM [inhibitor, partial curve, poor fit] | –
Cc1ccc(-c2csc(NC(=O)CN3CCOCC3)n2)cc1 | inconclusive: 7.94 µM [inhibitor, partial curve, poor fit] | –
CCn1c(=Nc2ccc(N3CCOCC3)cc2)ccc2ccccc21 | inconclusive: 0.398 µM [inhibitor, full curve, poor fit] | –
COc1ccc2nc3sc(C(=O)Nc4cc(Cl)c(OC)cc4OC)cc3cc2c1 | inconclusive: 6.31 µM [inhibitor, single point] | –
Cc1c(NC(=O)c2cc(-c3cccc(Cl)c3)on2)c(=O)n(-c2ccccc2)n1C | inconclusive: 28.2 µM [inhibitor, single point] | –
CC(C)C(=O)Nc1ccc(NC(=O)c2cc3ccccc3o2)cc1 | inconclusive: 29.1 µM [inhibitor, single point] | –
O=C(NCCC1=CCCCC1)c1ccc2c(c1)N(Cc1ccc(F)cc1)C(=O)c1ccccc1S2(=O)=O | inconclusive: 22.4 µM [inhibitor, single point] | –
Cc1nc2ccccn2c1C(=O)Nc1ccc2c(c1)OCCO2 | inconclusive: 35.5 µM [inhibitor, single point] | –

From PubChem BioAssay AID540276 (National Center for Advancing Translational Sciences (NCATS), 2011)
